B1: SF3A1 (protein, UniProt Q8K4Z5 1-791)
chain: MQAGPVQAVPPPPPVATESKQPIEEEASSKEDPTPSKPVVGIIYPPPEVRNIVDKTASFVARNGPEFEARIRQNEINNPKFNFLNPNDPYHAYYRHKVSEFKEGKAQEPSAAIPKVMQQQQQATQQQLPQKVQAQVIQETIVPKEPPPEFEFIADPPSISAFDLDVVKLTAQFVARNGRQFLTQLMQKEQRNYQFDFLRPQHSLFNYFTKLVEQYTKILIPPKGLFSKLKKEAENPREVLDQVCYRVEWAKFQERERKKEEEEKEKERVAYAQIDWHDFVVVETVDFQPNEQGNFPPPTTPEELGARILIQERYEKFGESEEVEMEVESDEEDQEKAEETPSQLDQDTQVQDMDEGSDDEEEGQKVPPPPETPMPPPLPPTPDQVIVRKDYDPKASKPLPPAPAPDEYLVSPITGEKIPASKMQEHMRIGLLDPRWLEQRDRSIREKQSDDEVYAPGLDIESSLKQLAERRTDIFGVEETAIGKKIGEEEIQKPEEKVTWDGHSGSMARTQQAAQANITLQEQIEAIHKAKGLVPEDDTKEKIGPSKPNEIPQQPPPPSSATNIPSSAPPITSVPRPPAMPPPVRTTVVSAVPVMPRPPMASVVRLPPGSVIAPMPPIIHAPRINVVPMPPAAPPIMAPRPPPMIVPTAFVPAPPVAPVPAPAPMPPVHPPPPMEDEPPSKKLKTEDSLMPEEEFLRRNKGPVSIKVQVPNMQDKTEWKLNGQGLVFTLPLTDQVSVIKVKIHEATGMPAGKQKLQYEGIFIKDSNSLAYYNMASGAVIHLALKERGGRKK
B2: SF3B1 (protein, UniProt Q99NB9 1-1304)
chain: MAKIAKTHEDIEAQIREIQGKKAALDEAQGVGLDSTGYYDQEIYGGSDSRFAGYVTSIAATELEDDDDDYSSSTSLLGQKKPGYHAPVALLNDIPQSTEQYDPFAEHRPPKIADREDEYKKHRRTMIISPERLDPFADGGKTPDPKMNARTYMDVMREQHLTKEEREIRQQLAEKAKAGELKVVNGAAASQPPSKRKRRWDQTADQTPGATPKKLSSWDQAETPGHTPSLRWDETPGRAKGSETPGATPGSKIWDPTPSHTPAGAATPGRGDTPGHATPGHGGATSSARKNRWDETPKTERDTPGHGSGWAETPRTDRGGDSIGETPTPGASKRKSRWDETPASQMGGSTPVLTPGKTPIGTPAMNMATPTPGHIMSMTPEQLQAWRWEREIDERNRPLSDEELDAMFPEGYKVLPPPAGYVPIRTPARKLTATPTPLGGMTGFHMQTEDRTMKSVNDQPSGNLPFLKPDDIQYFDKLLVDVDESTLSPEEQKERKIMKLLLKIKNGTPPMRKAALRQITDKAREFGAGPLFNQILPLLMSPTLEDQERHLLVKVIDRILYKLDDLVRPYVHKILVVIEPLLIDEDYYARVEGREIISNLAKAAGLATMISTMRPDIDNMDEYVRNTTARAFAVVASALGIPSLLPFLKAVCKSKKSWQARHTGIKIVQQIAILMGCAILPHLRSLVEIIEHGLVDEQQKVRTISALAIAALAEAATPYGIESFDSVLKPLWKGIRQHRGKGLAAFLKAIGYLIPLMDAEYANYYTREVMLILIREFQSPDEEMKKIVLKVVKQCCGTDGVEANYIKTEILPPFFKHFWQHRMALDRRNYRQLVDTTVELANKVGAAEIISRIVDDLKDEAEQYRKMVMETIEKIMGNLGAADIDHKLEEQLIDGILYAFQEQTTEDSVMLNGFGTVVNALGKRVKPYLPQICGTVLWRLNNKSAKVRQQAADLISRTAVVMKTCQEEKLMGHLGVVLYEYLGEEYPEVLGSILGALKAIVNVIGMHKMTPPIKDLLPRLTPILKNRHEKVQENCIDLVGRIADRGAEYVSAREWMRICFELLELLKAHKKAIRRATVNTFGYIAKAIGPHDVLATLLNNLKVQERQNRVCTTVAIAIVAETCSPFTVLPALMNEYRVPELNVQNGVLKSLSFLFEYIGEMGKDYIYAVTPLLEDALMDRDLVHRQTASAVVQHMSLGVYGFGCEDSLNHLLNYVWPNVFETSPHVIQAVMGALEGLRVAIGPCRMLQYCLQGLFHPARKVRDVYWKIYNSIYIGSQDALIAHYPRIYNDDKNTYIRYDLDYIL
B3: HnRNP L (protein, UniProt Q8R081 1-586)
chain: MSRRLLPRAEKRRRRLEQRQQPDEQLRRAGAMVKMAAAGGGGGGGRYYGGGNEGGRAPKRLKTENAGDQHGGGGGGGSGAAGGGGGENYDDPHKTPASPVVHIRGLIDGVVEADLVEALQEFGPISYVVVMPKKRQALVEFEDVLGACNAVNYAADNQIYIAGHPAFVNYSTSQKISRPGDSDDSRSVNSVLLFTILNPIYSITTDVLYTICNPCGPVQRIVIFRKNGVQAMVEFDSVQSAQRAKASLNGADIYSGCCTLKIEYAKPTRLNVFKNDQDTWDYTNPNLSGQGDPGSNPNKRQRQPPLLGDHPAEYGGPHGGYHSHYHDEGYGPPPPHYEGRRMGPPVGGHRRGPSRYGPQYGHPPPPPPPPDYGPHADSPVLMVYGLDQSKMNCDRVFNVFCLYGNVEKVKFMKSKPGAAMVEMADGYAVDRAITHLNNNFMFGQKMNVCVSKQPAIMPGQSYGLEDGSCSYKDFSESRNNRFSTPEQAAKNRIQHPSNVLHFFNAPLEVTEENFFEICDELGVKRPTSVKVFSGKSERSSSGLLEWDSKSDALETLGFLNHYQMKNPNGPYPYTLKLCFSTAQHAS

Chains of the proteins cited; added tags and fusions are not shown.
UniProt O70133: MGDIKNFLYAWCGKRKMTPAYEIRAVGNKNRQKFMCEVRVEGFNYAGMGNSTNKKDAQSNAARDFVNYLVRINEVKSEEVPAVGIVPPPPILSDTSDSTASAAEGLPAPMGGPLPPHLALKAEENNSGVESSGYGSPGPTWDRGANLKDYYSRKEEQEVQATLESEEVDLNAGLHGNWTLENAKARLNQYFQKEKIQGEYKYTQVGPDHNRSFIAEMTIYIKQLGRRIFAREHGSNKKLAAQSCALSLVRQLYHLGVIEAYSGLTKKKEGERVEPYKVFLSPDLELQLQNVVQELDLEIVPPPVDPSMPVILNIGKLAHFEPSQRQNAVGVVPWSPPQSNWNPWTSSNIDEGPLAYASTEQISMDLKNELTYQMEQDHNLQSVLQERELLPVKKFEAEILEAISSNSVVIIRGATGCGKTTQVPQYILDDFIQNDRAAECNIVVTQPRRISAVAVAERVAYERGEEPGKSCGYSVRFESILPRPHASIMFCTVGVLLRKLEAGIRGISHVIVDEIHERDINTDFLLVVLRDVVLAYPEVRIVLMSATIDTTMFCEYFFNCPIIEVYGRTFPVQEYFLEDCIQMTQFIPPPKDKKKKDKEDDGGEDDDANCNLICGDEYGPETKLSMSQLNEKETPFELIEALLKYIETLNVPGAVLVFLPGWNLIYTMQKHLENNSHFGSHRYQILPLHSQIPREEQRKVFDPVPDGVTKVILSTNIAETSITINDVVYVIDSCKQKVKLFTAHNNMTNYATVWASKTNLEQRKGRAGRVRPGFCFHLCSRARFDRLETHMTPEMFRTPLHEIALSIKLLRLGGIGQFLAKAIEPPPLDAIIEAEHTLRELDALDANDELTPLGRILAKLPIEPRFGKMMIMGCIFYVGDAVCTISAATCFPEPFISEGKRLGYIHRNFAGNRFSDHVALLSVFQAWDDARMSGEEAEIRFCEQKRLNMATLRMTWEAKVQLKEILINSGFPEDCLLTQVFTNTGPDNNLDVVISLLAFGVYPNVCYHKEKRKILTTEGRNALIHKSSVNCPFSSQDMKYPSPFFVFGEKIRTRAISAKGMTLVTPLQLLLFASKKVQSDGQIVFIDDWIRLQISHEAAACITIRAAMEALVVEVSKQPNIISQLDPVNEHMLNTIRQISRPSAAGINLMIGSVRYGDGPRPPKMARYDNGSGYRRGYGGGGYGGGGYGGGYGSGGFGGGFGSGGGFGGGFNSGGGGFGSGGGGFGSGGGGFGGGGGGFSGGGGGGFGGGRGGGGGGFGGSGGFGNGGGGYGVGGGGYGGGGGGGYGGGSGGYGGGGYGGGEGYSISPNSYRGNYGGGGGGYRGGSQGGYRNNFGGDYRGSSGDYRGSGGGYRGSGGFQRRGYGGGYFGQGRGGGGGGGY
UniProt Q61584: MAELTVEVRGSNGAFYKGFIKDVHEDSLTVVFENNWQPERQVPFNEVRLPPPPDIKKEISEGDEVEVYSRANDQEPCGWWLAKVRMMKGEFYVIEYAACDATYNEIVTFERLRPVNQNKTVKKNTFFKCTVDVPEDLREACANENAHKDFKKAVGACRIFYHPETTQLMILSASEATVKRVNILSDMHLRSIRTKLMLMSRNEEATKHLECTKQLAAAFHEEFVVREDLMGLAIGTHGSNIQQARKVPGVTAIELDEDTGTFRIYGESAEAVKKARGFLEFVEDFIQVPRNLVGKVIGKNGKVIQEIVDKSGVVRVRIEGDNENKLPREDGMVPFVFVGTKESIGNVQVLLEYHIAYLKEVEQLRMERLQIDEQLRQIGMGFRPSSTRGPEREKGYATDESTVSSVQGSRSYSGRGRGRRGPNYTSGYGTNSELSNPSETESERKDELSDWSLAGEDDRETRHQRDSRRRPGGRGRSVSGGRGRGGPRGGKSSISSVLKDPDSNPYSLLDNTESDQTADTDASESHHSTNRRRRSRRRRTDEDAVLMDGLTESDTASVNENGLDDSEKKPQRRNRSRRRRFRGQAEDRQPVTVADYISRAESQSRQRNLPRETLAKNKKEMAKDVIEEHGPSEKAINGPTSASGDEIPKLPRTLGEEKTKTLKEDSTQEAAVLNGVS

These are yes or no findings as the source states them, for the method shown. In cells and extracts the contact can be indirect. Here binding means that the protein was enriched with, or labelled near, the bait; the list need not be complete.

The first experiment deals with T1, Transcription factor-like 5 (mouse (endogenous in testis)) (UniProt Q32NY8).
T1 sequence: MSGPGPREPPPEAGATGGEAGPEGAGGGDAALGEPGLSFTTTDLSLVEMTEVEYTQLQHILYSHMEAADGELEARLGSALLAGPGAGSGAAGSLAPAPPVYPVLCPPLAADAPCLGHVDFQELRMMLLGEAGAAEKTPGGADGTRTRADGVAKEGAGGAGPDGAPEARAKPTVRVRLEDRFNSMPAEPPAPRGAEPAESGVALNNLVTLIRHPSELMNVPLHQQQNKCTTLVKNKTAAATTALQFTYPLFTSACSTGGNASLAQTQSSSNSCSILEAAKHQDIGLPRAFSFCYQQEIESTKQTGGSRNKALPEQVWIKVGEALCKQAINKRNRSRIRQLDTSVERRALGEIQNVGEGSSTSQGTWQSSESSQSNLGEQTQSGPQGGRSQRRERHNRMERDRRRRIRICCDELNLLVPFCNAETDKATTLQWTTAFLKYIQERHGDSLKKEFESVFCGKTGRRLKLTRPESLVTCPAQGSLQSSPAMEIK
In words: affinity purification with mass spectrometry.
For the molecule “DExH-box helicase 9 (from UniProt O70133 1-1380)”, the binding entry is listed as “binds”. Same read-out and setting: as for “fragile-X mental retardation syndrome-related protein 1 (from UniProt Q61584 1-677)”, the entry is “binds”; as for HnRNP K (from UniProt P61979 1-463), “binds”.

In a further experiment the target is T1, Transcription factor-like 5 (mouse (endogenous in testis)). Nature of the experiment: affinity purification with mass spectrometry. The source holds these as a separate data set.
For the molecule B1, the binding entry is “binds”. On to B2, for which the binding result was “binds”.

Regarding B3, the binding entry is reported as “binds”.

For the origin of these results see publication doi:10.1101/2021.06.17.448807.
